Some of the results follow. Residues, ends and D or L forms follow the SMILES beside them. *: point of attachment. Cbz = O=C(OCc1ccccc1)*
Assays:
Experiment in all cases: log2 fold change, soluble protein after heating vs DMSO (PISA); higher = thermal stabilisation; K562 cells, 10 uM, 30 min; active = over 0.2 and 3.5 SD of the protein, either way, in both replicates (recomputed)
[1] = compound: C#Cc1cccc(Nc2ncnc3cc(OCCOC)c(OCCOC)cc23)c1 [erlotinib]
Summary of the method: (§1)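 For each measurement, 10 μM compound was applied for 30 min to K562 cells at 2×10^6 cells/mL. Aliquots were heated for 3 min across 48°C-58°C, pooled, and extracted in PBS with 0.5% NP-40 at 4°C; the supernatant after 21,000xg for 90 min was soluble protein. This was quantified by TMTpro 16plex LC-MS/MS with channel sums equalised, and thermal stability was reported relative to control samples from duplicates, on a log2 fold-change scale.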

By UniProt entry, the sequences of proteins in these tests, tags left out. Where a name states a change or a piece, a line headed by the entry shows the natural chain unless it says otherwise.
UniProt Q9H497: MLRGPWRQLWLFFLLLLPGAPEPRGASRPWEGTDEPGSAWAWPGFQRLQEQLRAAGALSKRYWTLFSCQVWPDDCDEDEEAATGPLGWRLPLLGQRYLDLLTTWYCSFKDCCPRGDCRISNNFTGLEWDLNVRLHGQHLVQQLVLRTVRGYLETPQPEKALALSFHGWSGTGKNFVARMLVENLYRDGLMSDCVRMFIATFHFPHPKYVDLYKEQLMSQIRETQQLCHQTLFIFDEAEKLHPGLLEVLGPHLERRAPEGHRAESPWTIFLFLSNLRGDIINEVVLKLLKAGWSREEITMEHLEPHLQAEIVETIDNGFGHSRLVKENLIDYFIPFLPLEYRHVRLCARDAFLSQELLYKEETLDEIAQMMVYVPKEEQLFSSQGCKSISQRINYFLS
UniProt Q9Y5L0: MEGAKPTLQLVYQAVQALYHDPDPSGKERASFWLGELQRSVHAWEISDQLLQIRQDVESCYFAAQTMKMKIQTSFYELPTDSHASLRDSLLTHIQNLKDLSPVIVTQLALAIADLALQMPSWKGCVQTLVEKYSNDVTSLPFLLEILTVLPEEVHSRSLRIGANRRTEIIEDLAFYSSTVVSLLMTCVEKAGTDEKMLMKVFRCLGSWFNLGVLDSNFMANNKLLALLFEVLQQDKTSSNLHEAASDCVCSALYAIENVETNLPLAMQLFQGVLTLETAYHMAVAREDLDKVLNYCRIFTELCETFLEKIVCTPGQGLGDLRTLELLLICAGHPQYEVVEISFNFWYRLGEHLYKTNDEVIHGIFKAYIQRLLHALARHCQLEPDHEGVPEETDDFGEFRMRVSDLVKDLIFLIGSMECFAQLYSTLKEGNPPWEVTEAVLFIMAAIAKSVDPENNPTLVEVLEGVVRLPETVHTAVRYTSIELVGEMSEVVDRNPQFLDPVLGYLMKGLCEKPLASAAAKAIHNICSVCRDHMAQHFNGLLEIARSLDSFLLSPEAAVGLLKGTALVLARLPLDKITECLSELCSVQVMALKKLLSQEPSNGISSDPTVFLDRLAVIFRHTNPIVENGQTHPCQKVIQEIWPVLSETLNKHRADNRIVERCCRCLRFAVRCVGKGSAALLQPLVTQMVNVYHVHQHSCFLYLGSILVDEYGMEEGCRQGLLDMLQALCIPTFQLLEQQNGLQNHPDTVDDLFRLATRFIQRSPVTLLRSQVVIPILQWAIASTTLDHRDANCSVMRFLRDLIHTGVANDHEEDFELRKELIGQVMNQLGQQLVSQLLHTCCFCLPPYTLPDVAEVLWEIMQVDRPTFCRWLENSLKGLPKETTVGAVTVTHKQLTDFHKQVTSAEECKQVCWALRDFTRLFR
UniProt Q96F44: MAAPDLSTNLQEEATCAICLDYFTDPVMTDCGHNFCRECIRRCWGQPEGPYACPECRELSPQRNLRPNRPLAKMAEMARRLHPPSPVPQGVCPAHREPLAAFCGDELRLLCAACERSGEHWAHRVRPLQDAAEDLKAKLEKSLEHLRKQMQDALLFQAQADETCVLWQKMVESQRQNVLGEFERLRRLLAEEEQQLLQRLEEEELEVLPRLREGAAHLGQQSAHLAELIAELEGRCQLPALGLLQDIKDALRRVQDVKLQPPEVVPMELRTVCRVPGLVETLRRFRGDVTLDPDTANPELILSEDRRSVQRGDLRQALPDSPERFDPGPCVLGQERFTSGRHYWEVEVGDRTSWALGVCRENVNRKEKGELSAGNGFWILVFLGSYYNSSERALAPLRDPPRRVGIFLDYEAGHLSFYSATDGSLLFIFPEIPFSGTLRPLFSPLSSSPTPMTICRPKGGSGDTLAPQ
UniProt Q8TBZ6: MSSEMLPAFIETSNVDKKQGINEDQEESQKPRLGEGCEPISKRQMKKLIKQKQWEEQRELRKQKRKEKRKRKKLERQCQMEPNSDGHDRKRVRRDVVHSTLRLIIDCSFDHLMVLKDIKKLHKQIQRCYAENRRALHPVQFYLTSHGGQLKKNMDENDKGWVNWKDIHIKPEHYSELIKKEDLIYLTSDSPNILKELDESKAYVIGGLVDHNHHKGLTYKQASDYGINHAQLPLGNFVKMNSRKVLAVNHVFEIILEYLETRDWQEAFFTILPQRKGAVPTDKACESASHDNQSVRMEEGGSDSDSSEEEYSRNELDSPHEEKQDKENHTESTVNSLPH
UniProt Q9H4I3: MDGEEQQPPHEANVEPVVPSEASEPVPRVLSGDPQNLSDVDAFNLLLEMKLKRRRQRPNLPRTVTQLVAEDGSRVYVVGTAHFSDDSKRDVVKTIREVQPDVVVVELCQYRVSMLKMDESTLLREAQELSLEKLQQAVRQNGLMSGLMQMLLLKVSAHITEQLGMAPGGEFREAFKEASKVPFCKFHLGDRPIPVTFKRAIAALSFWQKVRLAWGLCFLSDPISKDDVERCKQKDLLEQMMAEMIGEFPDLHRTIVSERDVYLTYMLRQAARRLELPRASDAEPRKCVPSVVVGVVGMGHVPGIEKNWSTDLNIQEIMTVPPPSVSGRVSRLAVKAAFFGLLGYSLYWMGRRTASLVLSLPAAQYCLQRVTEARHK
UniProt Q9C037: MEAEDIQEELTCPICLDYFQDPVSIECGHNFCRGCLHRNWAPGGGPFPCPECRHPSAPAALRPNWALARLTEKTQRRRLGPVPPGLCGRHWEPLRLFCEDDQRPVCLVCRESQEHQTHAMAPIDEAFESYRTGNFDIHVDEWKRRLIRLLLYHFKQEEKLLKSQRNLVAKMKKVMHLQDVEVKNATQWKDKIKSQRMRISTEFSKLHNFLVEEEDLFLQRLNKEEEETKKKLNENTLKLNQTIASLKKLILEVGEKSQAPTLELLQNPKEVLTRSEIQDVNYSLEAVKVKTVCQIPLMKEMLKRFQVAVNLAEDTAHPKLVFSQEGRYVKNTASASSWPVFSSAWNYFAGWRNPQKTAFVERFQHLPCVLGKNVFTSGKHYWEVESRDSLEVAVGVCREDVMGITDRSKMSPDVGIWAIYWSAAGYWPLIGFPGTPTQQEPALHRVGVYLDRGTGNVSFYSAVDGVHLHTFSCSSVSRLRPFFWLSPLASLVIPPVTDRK
UniProt Q9Y296, whole entry, looked up: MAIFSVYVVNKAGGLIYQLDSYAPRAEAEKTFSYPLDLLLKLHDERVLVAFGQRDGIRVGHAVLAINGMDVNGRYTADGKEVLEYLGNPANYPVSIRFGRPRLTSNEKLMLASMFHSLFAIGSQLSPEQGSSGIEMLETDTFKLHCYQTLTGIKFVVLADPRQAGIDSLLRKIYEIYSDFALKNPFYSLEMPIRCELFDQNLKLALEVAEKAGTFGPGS
UniProt P12270, whole entry, looked up: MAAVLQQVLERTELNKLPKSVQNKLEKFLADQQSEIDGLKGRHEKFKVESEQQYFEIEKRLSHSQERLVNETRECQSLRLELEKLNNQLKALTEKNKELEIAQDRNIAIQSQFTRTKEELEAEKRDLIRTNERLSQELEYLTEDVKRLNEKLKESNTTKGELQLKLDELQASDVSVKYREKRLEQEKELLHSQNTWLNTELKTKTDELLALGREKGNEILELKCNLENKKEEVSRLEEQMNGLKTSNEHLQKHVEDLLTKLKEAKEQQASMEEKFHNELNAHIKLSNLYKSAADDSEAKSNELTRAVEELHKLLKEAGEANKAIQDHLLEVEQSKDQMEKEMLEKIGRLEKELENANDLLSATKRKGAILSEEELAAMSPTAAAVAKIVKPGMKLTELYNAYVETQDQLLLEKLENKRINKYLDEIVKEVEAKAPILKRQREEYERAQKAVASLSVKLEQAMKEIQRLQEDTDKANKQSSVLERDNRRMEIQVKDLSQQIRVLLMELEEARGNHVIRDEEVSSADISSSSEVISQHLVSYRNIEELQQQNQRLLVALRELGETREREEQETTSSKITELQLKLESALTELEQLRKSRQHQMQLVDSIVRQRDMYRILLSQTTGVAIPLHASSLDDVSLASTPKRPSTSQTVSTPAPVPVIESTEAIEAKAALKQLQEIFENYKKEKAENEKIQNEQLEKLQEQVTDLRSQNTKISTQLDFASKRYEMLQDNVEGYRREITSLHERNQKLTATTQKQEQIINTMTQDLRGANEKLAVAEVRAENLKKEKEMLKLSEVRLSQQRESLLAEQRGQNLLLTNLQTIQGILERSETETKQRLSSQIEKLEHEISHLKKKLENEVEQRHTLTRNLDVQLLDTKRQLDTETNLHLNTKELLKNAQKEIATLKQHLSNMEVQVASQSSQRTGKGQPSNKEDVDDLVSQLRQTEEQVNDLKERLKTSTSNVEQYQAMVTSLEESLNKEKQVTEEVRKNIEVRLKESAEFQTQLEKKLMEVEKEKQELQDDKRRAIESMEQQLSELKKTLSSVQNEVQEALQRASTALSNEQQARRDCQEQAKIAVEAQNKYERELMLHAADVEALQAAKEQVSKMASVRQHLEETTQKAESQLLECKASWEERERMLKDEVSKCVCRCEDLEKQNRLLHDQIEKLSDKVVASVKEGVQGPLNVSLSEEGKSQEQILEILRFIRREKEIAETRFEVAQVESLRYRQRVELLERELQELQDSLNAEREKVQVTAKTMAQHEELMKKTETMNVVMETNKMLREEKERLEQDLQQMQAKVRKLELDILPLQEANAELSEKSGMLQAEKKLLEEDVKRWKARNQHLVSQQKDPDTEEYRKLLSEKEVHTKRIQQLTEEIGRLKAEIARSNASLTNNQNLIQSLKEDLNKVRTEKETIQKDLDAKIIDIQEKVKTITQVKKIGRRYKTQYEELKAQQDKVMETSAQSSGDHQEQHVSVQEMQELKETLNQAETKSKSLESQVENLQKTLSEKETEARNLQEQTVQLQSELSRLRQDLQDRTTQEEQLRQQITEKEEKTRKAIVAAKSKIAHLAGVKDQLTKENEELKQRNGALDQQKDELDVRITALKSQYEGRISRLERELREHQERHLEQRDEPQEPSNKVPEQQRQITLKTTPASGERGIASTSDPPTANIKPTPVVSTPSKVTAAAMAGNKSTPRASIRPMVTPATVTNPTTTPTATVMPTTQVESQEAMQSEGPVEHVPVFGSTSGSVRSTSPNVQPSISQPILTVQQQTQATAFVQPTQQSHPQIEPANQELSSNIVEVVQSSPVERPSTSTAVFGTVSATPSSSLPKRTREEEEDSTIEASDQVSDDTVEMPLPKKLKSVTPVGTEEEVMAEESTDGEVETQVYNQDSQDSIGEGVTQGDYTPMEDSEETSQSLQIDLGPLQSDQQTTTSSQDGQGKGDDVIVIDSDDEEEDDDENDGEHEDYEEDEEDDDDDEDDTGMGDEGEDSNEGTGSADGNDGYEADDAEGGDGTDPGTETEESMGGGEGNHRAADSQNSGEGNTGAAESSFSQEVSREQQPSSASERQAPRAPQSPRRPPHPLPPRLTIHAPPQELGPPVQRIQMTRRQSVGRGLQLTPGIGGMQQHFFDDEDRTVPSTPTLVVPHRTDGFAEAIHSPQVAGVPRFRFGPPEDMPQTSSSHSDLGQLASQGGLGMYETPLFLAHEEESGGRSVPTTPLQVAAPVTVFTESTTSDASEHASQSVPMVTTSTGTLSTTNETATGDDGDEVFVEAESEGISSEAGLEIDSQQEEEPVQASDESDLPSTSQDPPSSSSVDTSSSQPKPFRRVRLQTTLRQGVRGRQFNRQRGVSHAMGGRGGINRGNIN
UniProt Q9NXH9: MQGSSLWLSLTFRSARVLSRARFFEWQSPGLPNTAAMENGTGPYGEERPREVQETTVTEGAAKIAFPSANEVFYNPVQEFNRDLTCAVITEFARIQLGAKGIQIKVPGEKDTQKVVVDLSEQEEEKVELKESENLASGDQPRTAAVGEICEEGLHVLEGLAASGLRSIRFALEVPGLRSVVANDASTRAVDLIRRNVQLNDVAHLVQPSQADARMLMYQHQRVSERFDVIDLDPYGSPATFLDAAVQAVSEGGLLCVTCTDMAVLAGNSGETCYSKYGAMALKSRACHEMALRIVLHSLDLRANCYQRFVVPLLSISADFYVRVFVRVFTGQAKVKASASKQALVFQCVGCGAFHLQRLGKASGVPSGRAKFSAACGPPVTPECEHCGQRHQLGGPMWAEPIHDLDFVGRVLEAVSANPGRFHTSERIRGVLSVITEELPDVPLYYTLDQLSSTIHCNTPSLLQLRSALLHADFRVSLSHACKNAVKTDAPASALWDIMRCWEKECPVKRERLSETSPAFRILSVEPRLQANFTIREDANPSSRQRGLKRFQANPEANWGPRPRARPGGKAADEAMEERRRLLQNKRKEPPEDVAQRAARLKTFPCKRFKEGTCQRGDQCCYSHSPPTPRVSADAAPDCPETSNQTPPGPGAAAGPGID
UniProt P51580: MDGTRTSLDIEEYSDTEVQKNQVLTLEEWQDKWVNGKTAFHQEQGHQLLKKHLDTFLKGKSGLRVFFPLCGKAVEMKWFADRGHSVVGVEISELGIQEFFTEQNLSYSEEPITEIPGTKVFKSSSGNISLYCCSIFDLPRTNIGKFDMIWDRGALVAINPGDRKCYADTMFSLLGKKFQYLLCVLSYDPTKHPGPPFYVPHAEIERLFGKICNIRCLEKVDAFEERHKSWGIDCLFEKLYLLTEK

[2] = compound: C/C(=N\NC(=O)C1=CC(=CC=C1)S(=O)(=O)N2CCOCC2)/C3=C(C=CC(=C3)Cl)O
Summary of the method: as §1

[3] = compound: C1=CC(=C(C=C1Cl)C2=NC3=NC=CN=C3C(=N2)NC4=CC=NC=C4)F
Summary of the method: as §1

[4] = compound: C1=CC(=CC=C1C2=NC3=C(N2)C=C(C=C3)C(=O)N)OC4=CC=C(C=C4)Cl
Summary of the method: as §1

[5] = compound: C1=CC2=C(C=CC(=C2)/C=C\3/C(=O)NC(=NCC4=CC=CS4)S3)N=C1
Summary of the method: as §1

[6] = compound: C1=CC2=NC=CN=C2C=C1/C=C/3\C(=O)NC(=O)S3
Summary of the method: as §1

[7] = compound: C1=CC=C(C=C1)C2=NC(=C(N2)C3=CC=NC=C3)C4=CC(=C(C=C4)Cl)O
Summary of the method: as §1

[8] = compound: C1=CC=C2C(=C1)C3=NNC4=CC=CC(=C43)C2=O
Summary of the method: as §1

[9] = compound: C1CCN(C1)C(=O)NC2=CC=CC(=C2)NC3=NC=C(C(=N3)NCCC4=CN=CN4)Br
Summary of the method: as §1

[10] = compound: C1CN(CCC1(CC2=CC=C(C=C2)Cl)N)C3=NC=NC4=C3C=CN4
Summary of the method: as §1

[11] = compound: C1COCCN1CCN2C3=CC=CC=C3N=C2NC(=O)C4=CC(=CC=C4)[N+](=O)[O-] [IRAK-1-4 Inhibitor I]
Summary of the method: as §1

[12] = compound: C=CC(=O)N1CCC[C@@H](n2nc(-c3ccc(Oc4ccccc4)cc3)c3c(N)ncnc32)C1 [ibrutinib]
Summary of the method: as §1

[13] = compound: CC(=O)c1cnc2ccc(-c3cc(Cl)c(O)c(Cl)c3)nc2c1N[C@H]1CC[C@H](CN(C)C)CC1
Summary of the method: as §1

[14] = compound: CC(C)(C)Cn1c(N)nc2ccc(-c3[nH]c(C(C)(C)C)nc3-c3ccc(F)cc3)nc21 [ralimetinib]
Summary of the method: as §1

[15] = compound: CC(C)(O)CC(=O)NCCn1ccc2ncnc(Nc3ccc(Oc4cccc(C(F)(F)F)c4)c(Cl)c3)c21
Summary of the method: as §1

[16] = compound: CC(C)C1=C2N=C(C=C(N2N=C1)NCC3=CC=CC=C3)NCCCCCCN
Summary of the method: as §1

[17] = compound: CC(C)C[C@@H](C=O)NC(=O)[C@H](CC(C)C)NC(=O)[C@H](CC(C)C)NC(=O)OCc1ccccc1
Summary of the method: as §1

[18] = compound: CC(C)N(C[C@H]1O[C@@H](n2cnc3c(N)ncnc32)[C@H](O)[C@@H]1O)[C@H]1C[C@@H](CCc2nc3cc(C(C)(C)C)ccc3[nH]2)C1 [pinometostat]
Summary of the method: as §1

[19] = compound: CC1=C(C(CC(=O)N1)C2=CC=C(C=C2)C(F)(F)F)C(=O)NC3=C(C=C4C(=C3)C=NN4)F
Summary of the method: as §1

[20] = compound: CC1=C(C2=C(C=C1)C(=O)C3=CC=CC=C3N2CCCN)C
Summary of the method: as §1

Measured: log2 fold change

TSC22D1 (UniProt Q15714)
inactive: [1] 0.032 | [2] 0.022 | [3] 0.123 | [4] -0.023 | [5] -0.073 | [6] 0.061 | [7] -0.011 | [8] -0.005 | [9] -0.042 | [10] 0.047 | [11] -0.011 | [12] -0.015 | [13] 0.023 | [14] -0.017 | [15] -0.067 | [16] 0.036 | [17] 0.047 | [18] -0.074 | [19] -0.02 | [20] -0.031

TNPO2 (UniProt O14787)
inactive: [1] 0.075 | [2] 0.115 | [3] 0.033 | [4] -0.064 | [5] 0.077 | [6] 0.017 | [7] 0.018 | [8] -0.008 | [9] 0.027 | [10] -0.008 | [11] -0.088 | [12] -0.023 | [13] -0.051 | [14] 0.027 | [15] -0.138 | [17] -0.042 | [18] 0.012 | [20] -0.171
active: [16] -0.339

TOE1 (UniProt Q96GM8)
inactive: [1] -0.029 | [2] -0.151 | [3] -0.267 | [4] -0.056 | [5] 0.002 | [6] 0.005 | [7] -0.05 | [8] -0.035 | [9] -0.021 | [10] -0.107 | [11] -0.15 | [12] -0.031 | [13] 0.089 | [14] 0.012 | [15] 0.005 | [16] 0.042 | [17] 0.09 | [18] 0.077 | [20] -0.228

TOR3A (UniProt Q9H497)
inactive: [1] 0.022 | [2] -0.021 | [3] -0.016 | [4] 0.005 | [5] -0.048 | [6] 0.026 | [7] -0.046 | [8] -0.041 | [9] 0.018 | [10] 0.017 | [11] 0.014 | [12] 0.06 | [13] -0.02 | [14] -0.058 | [15] -0.074 | [16] -0.063 | [17] 0.001 | [18] 0.007 | [19] 0.059 | [20] -0.004

TNPO3 (UniProt Q9Y5L0)
inactive: [1] -0.01 | [2] 0.132 | [3] 0.068 | [4] -0.009 | [5] -0.014 | [6] 0.029 | [7] 0.023 | [8] -0.007 | [9] 0.004 | [10] -0.03 | [11] -0.006 | [12] -0.02 | [13] -0.014 | [14] 0.024 | [15] -0.156 | [16] -0.154 | [17] -0.08 | [18] 0.006 | [20] -0.02

TRIM11 (UniProt Q96F44)
inactive: [1] 0.023 | [2] 0.045 | [3] 0.055 | [4] -0.058 | [5] 0.052 | [6] 0.073 | [7] 0.01 | [8] -0.043 | [9] 0.003 | [10] -0.029 | [11] -0.037 | [12] -0.029 | [13] -0.074 | [14] 0.016 | [15] -0.021 | [16] -0.079 | [17] -0.002 | [18] -0.042 | [19] 0.078 | [20] -0.061

TRMT10A (UniProt Q8TBZ6)
active: [8] 0.271
inactive: [1] -0.01 | [2] 0.044 | [3] 0.004 | [4] 0.031 | [5] 0.037 | [6] 0.02 | [7] -0.015 | [9] 0.038 | [10] -0.045 | [11] 0.056 | [12] -0.009 | [13] -0.065 | [14] -0.006 | [15] -0.107 | [16] -0.075 | [17] -0.01 | [18] 0.042 | [20] 0.066

TOR1B (UniProt O14657)
inactive: [1] -0.03 | [2] 0.024 | [3] -0.015 | [4] -0.013 | [5] 0.04 | [6] -0.002 | [7] -0.025 | [8] -0.026 | [9] 0.001 | [10] -0.024 | [11] -0.022 | [12] 0 | [13] 0.008 | [14] -0.088 | [15] 0.007 | [16] -0.066 | [17] 0.055 | [18] 0.006 | [19] 0.052 | [20] -0.004

TRABD (UniProt Q9H4I3)
active: [16] 0.416
inactive: [1] -0.057 | [2] -0.023 | [3] -0.029 | [4] 0.016 | [5] 0.032 | [6] -0.049 | [7] 0.121 | [8] 0.074 | [9] -0.077 | [10] 0.071 | [11] -0.046 | [12] 0.007 | [13] -0.032 | [14] 0.073 | [15] 0.277 | [17] 0.045 | [18] 0.018 | [20] -0.005

TRIM4 (UniProt Q9C037)
inactive: [1] 0.004 | [2] 0.031 | [3] 0.035 | [4] -0.199 | [5] 0.002 | [6] -0.01 | [7] -0.029 | [8] 0.135 | [9] -0.111 | [10] -0.073 | [11] -0.157 | [12] 0.173 | [13] -0.063 | [14] 0.023 | [15] -0.183 | [16] -0.078 | [17] -0.013 | [18] 0.173 | [20] 0.089

TOM1 isoform 2 (UniProt O60784)
inactive: [1] 0.012 | [2] 0.014 | [3] 0.107 | [4] -0.04 | [5] -0.006 | [6] -0.016 | [7] -0.053 | [8] 0.004 | [9] -0.023 | [10] 0.014 | [11] 0.101 | [12] 0.013 | [13] 0.028 | [14] 0.071 | [15] -0.017 | [16] -0.302 | [17] 0.033 | [18] 0.023 | [20] 0.16

Quoted at random: 2 entries already listed.
TOM1 isoform 2 (UniProt O60784)
inactive: [1] 0.012 | [2] 0.014 | [3] 0.107 | [4] -0.04 | [5] -0.006 | [6] -0.016 | [7] -0.053 | [8] 0.004 | [9] -0.023 | [10] 0.014 | [11] 0.101 | [12] 0.013 | [13] 0.028 | [14] 0.071 | [15] -0.017 | [16] -0.302 | [17] 0.033 | [18] 0.023 | [20] 0.16

TRABD (UniProt Q9H4I3)
active: [16] 0.416
inactive: [1] -0.057 | [2] -0.023 | [3] -0.029 | [4] 0.016 | [5] 0.032 | [6] -0.049 | [7] 0.121 | [8] 0.074 | [9] -0.077 | [10] 0.071 | [11] -0.046 | [12] 0.007 | [13] -0.032 | [14] 0.073 | [15] 0.277 | [17] 0.045 | [18] 0.018 | [20] -0.005

Further entries.

TRAPPC4 (UniProt Q9Y296)
inactive: [1] 0.002 | [2] 0.026 | [3] 0 | [4] 0.019 | [5] 0.017 | [6] 0.022 | [7] -0.022 | [8] 0.016 | [9] 0.007 | [10] 0.041 | [11] 0 | [12] -0.038 | [13] -0.066 | [14] -0.022 | [15] -0.046 | [16] 0.02 | [17] -0.023 | [18] 0.064 | [19] 0.012 | [20] 0.002

TOMM34 (UniProt Q15785)
inactive: [1] 0.156 | [2] 0.086 | [3] -0.045 | [4] -0.009 | [5] 0.068 | [6] 0 | [7] -0.026 | [8] 0.005 | [9] -0.042 | [10] -0.034 | [11] -0.057 | [12] -0.077 | [13] -0.001 | [14] 0.061 | [15] -0.098 | [16] -0.168 | [17] 0.088 | [18] 0.063 | [19] 0.033 | [20] 0.079

TRAPPC11 (UniProt Q7Z392)
inactive: [1] 0.044 | [2] 0.136 | [3] -0.027 | [4] 0.017 | [5] 0.105 | [6] 0.059 | [7] 0.027 | [8] 0.062 | [9] -0.019 | [10] -0.001 | [11] -0.007 | [12] 0.001 | [13] -0.048 | [14] 0.034 | [15] -0.063 | [16] -0.064 | [17] 0.012 | [18] 0.032 | [20] 0.028

TPR (UniProt P12270)
inactive: [1] -0.113 | [2] 0.023 | [3] -0.001 | [4] -0.011 | [5] -0.098 | [6] 0.174 | [7] -0.104 | [8] -0.118 | [9] 0 | [10] -0.142 | [11] 0.03 | [12] -0.048 | [13] 0.247 | [14] 0.058 | [15] 0.121 | [16] 0.091 | [17] 0.024 | [18] -0.001 | [20] -0.122

TRMT1 (UniProt Q9NXH9)
inactive: [1] 0.014 | [2] 0.018 | [3] 0.022 | [4] 0.025 | [5] -0.016 | [6] 0.029 | [7] -0.041 | [8] 0 | [9] -0.005 | [10] 0.037 | [11] 0.001 | [12] -0.007 | [13] 0.014 | [14] -0.082 | [15] 0.006 | [16] 0.065 | [17] -0.017 | [18] -0.041 | [19] 0.009 | [20] 0.043

TPMT (UniProt P51580)
inactive: [1] -0.019 | [2] 0.041 | [3] 0.055 | [4] -0.011 | [5] 0.012 | [6] 0.038 | [7] -0.015 | [8] -0.011 | [9] -0.005 | [10] -0.008 | [11] 0.023 | [12] -0.034 | [13] -0.014 | [14] -0.044 | [15] 0.025 | [16] 0.017 | [17] -0.014 | [18] -0.032 | [19] -0.024 | [20] 0.005

Reference: the supplement of paper PMC10849652
